Laboratory results: PubChem BioAssay AID1224826 (NIAID, 2016)

- Screen: 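Genes that change LPS-induced Tnf promoter activity in mouse macrophages when knocked down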 (primary screen)
- System: RAW264.7 G9 macrophages from mouse bearing reporters for p65 (GFP) and the Tnf promoter (mCherry)
- Knock-down reagent: siRNA pool against mouse genes, 100 nM
- Duration: 16 h of LPS stimulation, after 2 days of siRNA transfection
- Treatment: bacterial lipopolysaccharide (Salmonella minnesota R595), 10 ng/ml
- Measured: 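Imaged Tnf reporter mCherry in nuclei, minus background, normalised per plate to the median and expressed as robust z-scores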
- Scale: Tnf reporter robust z-score: higher = stronger Tnf promoter reporter signal after LPS; Tnf reporter intensity: higher = stronger Tnf promoter reporter signal
- Rule for the call: 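a well counts as active at a score of -1.3 or below (Tlr4 knock-down control median) or above 3 (raised signal); controls and wells holding fewer than 50 cells are excluded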
- Meaning of the calls: active = Tnf reporter clearly lowered or raised; inactive = no clear change in Tnf reporter
In all, the deposit lists about 17,000 reagents; below is an unselected part. About 1,110 of all reagents (6.6%) were called active. 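Active means lowered or raised reporter signal; replicate intensities are raw and not normalised per plate.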 The numbers tell different reagents against one gene apart. Some reagents were tested in more than one well and are listed for each. Reagent sequences are not shown.

Gene	reagent no.	Tnf reporter robust z-score	fewer than 50 cells in well	Tnf reporter intensity, replicate 1	Tnf reporter intensity, replicate 2	Outcome
Pagr1a (GeneID 67278)	1		fewer than 50 cells per well; well left out of calls	120	66.5	inactive
Sypl1 (GeneID 19027)	1	1.95	enough cells in well	205	146	inactive
Tgoln1 (GeneID 22134)	1	0.91	enough cells in well	152	82.5	inactive
Katnal2 (GeneID 71206)	1	-1.13	enough cells in well	125	76	inactive
Pogz (GeneID 229584)	1	-0.1	enough cells in well	128	120	inactive
Dnajc17 (GeneID 69408)	1	-0.45	enough cells in well	183	75.6	inactive
Cebpd (GeneID 12609)	1	-1.84	enough cells in well	82.7	39.6	active
Fkbp14 (GeneID 231997)	1	0.14	enough cells in well	141	184	inactive
Srp68 (GeneID 217337)	1		fewer than 50 cells per well; well left out of calls	236	47.7	inactive
Cdk5r2 (GeneID 12570)	1	0.67	enough cells in well	202	227	inactive
D130012P04Rik (GeneID 319377)	1	0.17	enough cells in well	202	180	inactive
Vmn1r59 (GeneID 404284)	1	1.49	enough cells in well	172	139	inactive
Tyr (GeneID 22173)	1	0.25	enough cells in well	224	278	inactive
Smug1 (GeneID 71726)	1		fewer than 50 cells per well; well left out of calls	121	36.7	inactive
Or4c111 (GeneID 258895)	1	1.78	enough cells in well	308	234	inactive
Mmp20 (GeneID 30800)	1	-0.33	enough cells in well	224	191	inactive
Heg1 (GeneID 77446)	1		fewer than 50 cells per well; well left out of calls	144	57.3	inactive
Heg1 (GeneID 77446)	2		fewer than 50 cells per well; well left out of calls	255	321	inactive
Far1 (GeneID 67420)	1		fewer than 50 cells per well; well left out of calls	159	52.1	inactive
Pum3 (GeneID 52874)	1	0.08	enough cells in well	214	149	inactive
Ptcd1 (GeneID 71799)	1	0.47	enough cells in well	144	156	inactive
Obp2a (GeneID 227627)	1	-0.49	enough cells in well	172	173	inactive
Gm4836 (GeneID 22526)	1	-1.5	enough cells in well	53.1	60.2	active
Hoxb13 (GeneID 15408)	1	1.32	enough cells in well	306	305	inactive
Pla2g2f (GeneID 26971)	1	-0.95	enough cells in well	59.8	116	inactive
Arfgap2 (GeneID 77038)	1	-0.23	enough cells in well	113	67.3	inactive
Scyl3 (GeneID 240880)	1	-0.35	enough cells in well	106	137	inactive
Scyl3 (GeneID 240880)	1		fewer than 50 cells per well; well left out of calls	68.2	36.6	inactive
Bpifc (GeneID 270757)	1	0.68	enough cells in well	135	204	inactive
Lage3 (GeneID 66192)	1	-0.36	enough cells in well	249	36.6	inactive
A130079P16Rik (retired record) (GeneID 319273)	1		fewer than 50 cells per well; well left out of calls	124	85.2	inactive
Slc6a4 (GeneID 15567)	1	-0.49	enough cells in well	195	112	inactive
She (GeneID 214547)	1	1.47	enough cells in well	331	218	inactive
Lrrc23 (GeneID 16977)	1	-0.66	enough cells in well	149	75.6	inactive
Zfp428 (GeneID 232969)	1		fewer than 50 cells per well; well left out of calls	248	73.4	inactive
Pcdhgb4 (GeneID 93701)	1	-0.32	enough cells in well	95.2	153	inactive
Golga7 (GeneID 57437)	1	0.68	enough cells in well	296	205	inactive
Srgn (GeneID 19073)	1	-0.22	enough cells in well	218	186	inactive
Foxl1 (GeneID 14241)	1	0.12	enough cells in well	274	240	inactive
Atp13a2 (GeneID 74772)	1	-0.18	enough cells in well	113	189	inactive
Cc2d2a (GeneID 231214)	1	0.17	enough cells in well	196	146	inactive
P2ry12 (GeneID 70839)	1	-1	enough cells in well	205	39.5	inactive
Elmod2 (GeneID 244548)	1	-1.44	enough cells in well	124	63.8	active
AY036118 (GeneID 101056014)	1	0.97	enough cells in well	235	211	inactive
Pex2 (GeneID 19302)	1	0.06	enough cells in well	320	206	inactive
H2-DMb2 (GeneID 15000)	1	-0.61	enough cells in well	141	191	inactive
Qrfprl (GeneID 243407)	1	-0.25	enough cells in well	106	149	inactive
Ddost (GeneID 13200)	1		fewer than 50 cells per well; well left out of calls	24.4	40.7	inactive
Apobec2 (GeneID 11811)	1	-1.35	enough cells in well	88.4	95.7	active
Cox6b2 (GeneID 333182)	1	-0.56	enough cells in well	143	150	inactive
Elf4 (GeneID 56501)	1	-2.24	enough cells in well	62.6	86.6	active
Abt1 (GeneID 30946)	1	-1.04	enough cells in well	104	100	inactive
Rtp3 (GeneID 235636)	1		fewer than 50 cells per well; well left out of calls	74.1	59.2	inactive
Bpifa1 (GeneID 18843)	1	-2.09	enough cells in well	36.6	39.6	active
Tafa3 (GeneID 329731)	1	-0.11	enough cells in well	120	83.7	inactive
Pcare (GeneID 225004)	1	-0.96	enough cells in well	119	163	inactive
Mt2 (GeneID 17750)	1	0.37	enough cells in well	255	265	inactive
Cdh6 (GeneID 12563)	1	3.54	enough cells in well	532	465	active

Copied from the listing for reference:
Gene	reagent no.	Tnf reporter robust z-score	fewer than 50 cells in well	Tnf reporter intensity, replicate 1	Tnf reporter intensity, replicate 2	Outcome
She (GeneID 214547)	1	1.47	enough cells in well	331	218	inactive
Lrrc23 (GeneID 16977)	1	-0.66	enough cells in well	149	75.6	inactive
Zfp428 (GeneID 232969)	1		fewer than 50 cells per well; well left out of calls	248	73.4	inactive
Pcdhgb4 (GeneID 93701)	1	-0.32	enough cells in well	95.2	153	inactive
Golga7 (GeneID 57437)	1	0.68	enough cells in well	296	205	inactive
Srgn (GeneID 19073)	1	-0.22	enough cells in well	218	186	inactive
Foxl1 (GeneID 14241)	1	0.12	enough cells in well	274	240	inactive
Atp13a2 (GeneID 74772)	1	-0.18	enough cells in well	113	189	inactive
Cc2d2a (GeneID 231214)	1	0.17	enough cells in well	196	146	inactive
